{"sequences": {"note": "Chains of the proteins cited; added tags and fusions are not shown.", "UniProt P27695, whole entry, looked up": "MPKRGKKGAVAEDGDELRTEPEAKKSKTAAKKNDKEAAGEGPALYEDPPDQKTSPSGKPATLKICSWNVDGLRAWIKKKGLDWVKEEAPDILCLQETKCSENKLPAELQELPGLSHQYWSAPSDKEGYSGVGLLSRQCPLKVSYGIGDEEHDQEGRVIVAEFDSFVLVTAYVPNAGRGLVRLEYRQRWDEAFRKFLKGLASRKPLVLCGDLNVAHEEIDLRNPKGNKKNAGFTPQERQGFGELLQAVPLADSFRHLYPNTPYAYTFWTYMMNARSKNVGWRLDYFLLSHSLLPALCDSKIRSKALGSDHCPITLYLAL"}, "source": "PubChem BioAssay AID2517", "about": "(National Center for Advancing Translational Sciences (NCATS), 2010)", "note": "Hit rate of the full screen: of about 350,000 compounds, about 1,200 (0.34%) were called active. Inconclusive results, whose numbers are uncertain, are shown with a selection of clear calls. Calls follow the shape of the dose curve; as a rule, active = well fitted inhibition curve with a large enough effect; inconclusive = small, poorly fitted or top-dose-only effect; inactive = no such curve, though single readings can be large or run the other way. Potencies of inconclusive entries are doubtful fits and often do not repeat. Potency is read from the fitted curve at half-maximal effect."}
{"molecular_target": "DNA repair nuclease/redox regulator APEX1 (Homo sapiens) (UniProt P27695)", "assay": "qHTS Assay for Inhibitors of the Human Apurinic/apyrimidinic Endonuclease 1 (APE1); also: nearly all actives have a fitted effect of over 55% in size", "settings": "recombinant APE1, TAMRA/BHQ-2 abasic DNA cleavage fluorescence; series mostly up to 65.8 µM", "summary_of_the_method": "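Quantitative HTS: incision of a TAMRA/BHQ-2 double-stranded substrate bearing a tetrahydrofuran abasic site by 0.75 nM APE1 raises fluorescence. Substrate 50 nM final, added after 15 min compound preincubation at room temperature; progress as third-minus-first kinetic read difference.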"}
{"smiles": "O=C(O)/C=C/c1ccc([N+](=O)[O-])o1", "Potency": "inconclusive: 31.6 µM [inhibitor, partial curve]"}
{"smiles": "O=c1c2ccccc2nc(COc2ccccc2)n1/N=C/c1ccc(O)c(O)c1", "Potency": "inconclusive: 14.1 µM [inhibitor, partial curve]"}
{"smiles": "O=C(NCCCN1CCCC1=O)c1ccc2c(=O)n(Cc3ccco3)c(=S)[nH]c2c1", "Potency": "inactive"}
{"smiles": "O=C(CSC1=NC2(CCCCC2)N=C1c1ccccc1)Nc1ccc2c(c1)OCCO2", "Potency": "inconclusive: 3.98 µM [inhibitor, single point]"}
{"smiles": "Cc1ccc(C)c(OCC(=O)NC(Cc2c[nH]c3ccccc23)C(=O)O)c1", "note": "(centres undefined)", "Potency": "inconclusive: 3.16 µM [inhibitor, partial curve, poor fit]"}
{"smiles": "COc1ccc(CN(C(=O)/C=C/c2ccco2)C2CCS(=O)(=O)C2)cc1OC", "note": "(centres undefined)", "Potency": "inactive"}
{"smiles": "CS(=O)(=O)C1=NSC2=NC(=O)/C(=C\\c3cccn3-c3ccc(Cl)cc3)C(=N)N21", "Potency": "inconclusive: 25.1 µM [inhibitor, single point]"}
{"smiles": "COc1ccc(-c2cc(C(F)(F)F)nc(S(=O)(=O)CCCC(=O)Nc3cccc(O)c3)n2)cc1OC", "Potency": "inconclusive: 7.94 µM [inhibitor, partial curve, poor fit]"}
{"smiles": "CC1(C)CC(=O)C2=C(C1)N(N1CCOCC1)C(N)=C(C#N)C2c1cccs1", "note": "(centres undefined)", "Potency": "inconclusive: 0.0224 µM [inhibitor, partial curve, poor fit]"}
{"smiles": "Cc1ccccc1NC(=O)c1cccc(C(=O)Nc2ccccc2C)n1", "Potency": "inactive"}
{"smiles": "COc1ccc(OC(=O)c2cccc(S(=O)(=O)N3CC(C)OC(C)C3)c2)cc1", "note": "(centres undefined)", "Potency": "inconclusive: 29.9 µM [inhibitor, single point]"}
{"smiles": "COc1ccccc1N(C)S(=O)(=O)c1ccc(C(=O)OCC(=O)c2c[nH]c3ccccc23)cc1", "Potency": "inconclusive: 10 µM [inhibitor, partial curve]"}
{"smiles": "O=C(Nc1ccc(F)cc1)Nc1ccc(N2CCCC2)c(S(=O)(=O)Nc2ccccc2Cl)c1", "Potency": "inconclusive: 5.62 µM [inhibitor, single point]"}
{"smiles": "S=c1[nH]nc(-c2cccc(Cl)c2)n1/N=C/c1ccc(-c2ccccc2Br)o1", "Potency": "inconclusive: 25.1 µM [inhibitor, single point]"}
{"smiles": "Cc1c(C(=O)N2CCOCC2)cc(C(C)(C)C)n1-c1ccccc1", "Potency": "inactive"}
{"smiles": "COc1cc([N+](=O)[O-])cc(/C=N/NC(=O)c2cccnc2)c1O", "Potency": "inactive"}
{"smiles": "Cc1ccc(S(=O)(=O)N2CCOCC2)cc1NC(=O)COC(=O)CCC(=O)c1ccc(F)cc1", "Potency": "inactive"}
{"smiles": "COc1ccc(/C(C)=N/Nc2cccc(C(=O)O)c2)cc1OC", "Potency": "inconclusive: 25.1 µM [inhibitor, single point]"}
{"smiles": "CCOC(=O)c1cc2c(C)[nH]c(C)c2cc(C(=O)OCC)c1=O", "Potency": "inconclusive: 20 µM [inhibitor, single point]"}
{"smiles": "CC[C@H]1C(c2cccc(Cl)c2)=NN(c2ccccc2)[C@@H]1CO", "Potency": "inconclusive: 50.1 µM [inhibitor, single point]"}
{"smiles": "O=C(NC1CSCC1OC(=O)c1ccccc1)c1ccccc1", "note": "(centres undefined)", "Potency": "inconclusive: 44.7 µM [inhibitor, single point]"}
{"smiles": "O=C(CNC1C(=O)Nc2ccccc21)Sc1ccccc1", "note": "(centres undefined)", "Potency": "inconclusive: 2.24 µM [inhibitor, partial curve, poor fit]"}
{"smiles": "COc1ccc(CCn2c(=S)[nH]c3ccc(N4CCOCC4)cc3c2=O)cc1OC", "Potency": "inconclusive: 39.8 µM [inhibitor, single point]"}
{"smiles": "COc1ccc(/C(C#N)=C/c2c(-c3ccc(Cl)cc3)nc3c(C)cccn23)cc1", "Potency": "inconclusive: 6.31 µM [inhibitor, partial curve, poor fit]"}
{"smiles": "Cn1c(Cn2nnc3ccccc32)nnc1SCC(=O)N1c2ccccc2Sc2ccccc21", "Potency": "inconclusive: 25.1 µM [inhibitor, single point]"}
{"smiles": "Cc1nn(-c2ccccc2)nc1C(=O)NNC(=O)c1cccc2ccccc12", "Potency": "inconclusive: 3.55 µM [inhibitor, single point]"}
{"smiles": "NC(=S)N=Nc1c(O)n(CCCl)c2ccccc12", "Potency": "inconclusive: 7.94 µM [inhibitor, partial curve]"}
{"smiles": "CCOc1ccccc1NC(=O)c1ccc([N+](=O)[O-])cc1", "Potency": "inconclusive: 8.91 µM [inhibitor, single point]"}
{"smiles": "N#Cc1cc2c(OCC(O)CN3CCN(C(c4ccccc4)c4ccccc4)CC3)cccc2[nH]1", "note": "(centres undefined)", "Potency": "inactive"}
{"smiles": "COc1ccc(CN(C(=O)/C=C/c2ccco2)C2CCS(=O)(=O)C2)cc1", "note": "(centres undefined)", "Potency": "inconclusive: 39.8 µM [inhibitor, single point]"}
{"smiles": "CC1=NN(c2ccccc2)C(=O)/C1=C\\c1sccc1C", "Potency": "inconclusive: 50.1 µM [inhibitor, partial curve, poor fit]"}
{"smiles": "COc1ccc(Cl)cc1C(=O)NNC(=O)c1nc2nc(C)cc(C)n2n1", "Potency": "inconclusive: 44.7 µM [inhibitor, single point]"}
{"smiles": "Cc1[nH]c(/C=C2/C(=O)Nc3ccc(S(=O)(=O)Cc4c(Cl)cccc4Cl)cc32)c(C)c1C(=O)N1CCCC1CN1CCCC1", "note": "(centres undefined)", "Potency": "inconclusive: 35.5 µM [inhibitor, partial curve]"}
{"smiles": "COc1ccccc1N=Cc1c(C)c(C#N)c2[nH]c3ccccc3n2c1=O", "Potency": "inconclusive: 0.398 µM [inhibitor, partial curve, poor fit]"}
{"smiles": "CCOC(=O)N1CCN(C(=O)c2cnn3ccccc23)CC1", "Potency": "inconclusive: 12.6 µM [inhibitor, partial curve, poor fit]"}
{"smiles": "CCOC(=O)c1c(C)oc2ccc(NS(=O)(=O)c3ccc4c5c(cccc35)C(=O)N4)cc12", "Potency": "inconclusive: 1.26 µM [inhibitor, full curve, poor fit]"}
{"smiles": "O=C(Cc1ccc(Cl)c(Cl)c1)Nc1ccc(SC(F)F)cc1", "Potency": "inconclusive: 50.1 µM [inhibitor, partial curve, poor fit]"}
{"smiles": "Cc1ccc(NC(=O)CN2C(=O)S/C(=C/c3ccc(O)c([N+](=O)[O-])c3)C2=O)cc1C", "Potency": "inconclusive: 35.5 µM [inhibitor, single point]"}
{"smiles": "CCOc1ccc(/C=C2/SC(=S)N(CCC(=O)Nc3ccc(C(=O)O)cc3)C2=O)cc1", "Potency": "active: 7.52 µM"}
{"smiles": "Cn1c(=O)c(-c2cccs2)nc2cnc(OCc3ccccc3)nc21", "Potency": "inconclusive: 0.0794 µM [inhibitor, full curve]"}
{"smiles": "S=c1nc(-c2cc(Cl)ccc2Cl)[nH][nH]1", "Potency": "inactive"}
{"smiles": "Cc1nc2ccc(-c3nc4ccc(N)cc4[nH]3)cc2[nH]1", "Potency": "inconclusive: 22.4 µM [inhibitor, single point]"}
{"smiles": "COc1ccc2nc(-n3c(O)c(C4=c5ccccc5=NC4=O)[nH]c3=S)sc2c1", "Potency": "inactive"}
{"smiles": "COc1cc(N=Nc2cccc(S(N)(=O)=O)c2)c2ccccc2c1N", "Potency": "inconclusive: 20 µM [inhibitor, single point]"}
{"smiles": "O=C(CNC(=O)c1ccccc1O)N/N=C/c1cc(Br)ccc1OC(=O)/C=C/c1ccco1", "Potency": "inconclusive: 44.7 µM [inhibitor, single point]"}
{"smiles": "COC(=O)COc1ccc(/C=C2/NC(=O)N(CC(=O)OC)C2=O)cc1", "Potency": "inconclusive: 15.8 µM [inhibitor, single point]"}
{"smiles": "CC(/C=N/Nc1nc2ccccc2[nH]1)=C\\c1ccccc1", "Potency": "inconclusive: 31.6 µM [inhibitor, single point]"}
{"smiles": "O=C(OCC(=O)N1CCCC1=O)c1nc(Cl)c(Cl)c(Cl)c1Cl", "Potency": "inconclusive: 33.6 µM [inhibitor, single point]"}
{"smiles": "CN(C(=O)COC(=O)c1ccccc1NC(=O)c1ccco1)C1CCS(=O)(=O)C1", "note": "(centres undefined)", "Potency": "inconclusive: 14.1 µM [inhibitor, partial curve]"}
{"smiles": "CC(C)(C)n1ncc2c(=O)n(Cc3cccc(Oc4ccccc4)c3)cnc21", "Potency": "inactive"}
{"smiles": "COc1ccc(NC(=O)c2cc(C)nc3ccccc23)cc1S(=O)(=O)N1CCOCC1", "Potency": "inactive"}
{"smiles": "Cc1c(NS(=O)(=O)c2ccc3c(c2)OCCO3)cccc1-c1nc2cccnc2s1", "Potency": "inconclusive: 17.8 µM [inhibitor, single point]"}
{"smiles": "O=C(NCCc1ccccc1)c1ccc(=O)oc1", "Potency": "inactive"}
{"smiles": "NC(=O)C1CCCN(C(=O)c2ccc(-c3cccc(Cl)c3Cl)o2)C1", "note": "(centres undefined)", "Potency": "inconclusive: 8.44 µM [inhibitor, single point]"}
{"smiles": "CC(NC(=O)/C=C/c1ccco1)c1nc2ccccc2n1Cc1ccccc1F", "note": "(centres undefined)", "Potency": "inconclusive: 2.24 µM [inhibitor, partial curve]"}
{"smiles": "CCCCCCNC(=O)c1ccc(Br)o1", "Potency": "inconclusive: 3.98 µM [inhibitor, single point]"}
{"smiles": "CCOC(=O)/C(C#N)=C\\c1ccco1", "Potency": "inconclusive: 28.2 µM [inhibitor, partial curve]"}
{"smiles": "COc1ccc(CNc2ncnc3ccc(-c4c(C)noc4C)cc23)c(OC)c1", "Potency": "inactive"}
{"smiles": "Cc1nc(NS(=O)(=O)c2ccc(Br)cc2)c2c3c(sc2n1)CCC3", "Potency": "inconclusive: 2.24 µM [inhibitor, partial curve]"}
{"smiles": "CCOc1ccccc1NC(=O)C1CCCN(S(=O)(=O)c2cccc3cccnc23)C1", "note": "(centres undefined)", "Potency": "inconclusive: 39.8 µM [inhibitor, single point]"}
{"smiles": "COc1ccc(/C=N/NC(=O)c2ccc(Br)cc2)cc1CN1CCOCC1", "Potency": "inconclusive: 3.16 µM [inhibitor, single point]"}
{"smiles": "OCCN1CCN(c2ncnc3ccc(Br)cc23)CC1", "Potency": "inconclusive: 25.1 µM [inhibitor, single point]"}
{"smiles": "[S-]C(=Nc1ccc(Cl)cc1)N[n+]1ccccc1", "Potency": "inconclusive: 28.2 µM [inhibitor, single point]"}
{"smiles": "CC1CCN(S(=O)(=O)c2ccc3c(c2)c(=O)c(C(=O)NCc2cccs2)cn3C)CC1", "Potency": "inconclusive: 0.631 µM [inhibitor, full curve, poor fit]"}
